Measured values: doi:10.1101/2024.10.28.620578
Results are given in words; binding and its absence hold for the method and conditions named. In cells and extracts the contact can be indirect. Some results given as binding are weak or reduced against the parent protein; the word gives no strength. Sequences can lack the tags named with a protein.

Protein sequences, listed by entry. Tags and fused reporters are not part of them.
UniProt P38811: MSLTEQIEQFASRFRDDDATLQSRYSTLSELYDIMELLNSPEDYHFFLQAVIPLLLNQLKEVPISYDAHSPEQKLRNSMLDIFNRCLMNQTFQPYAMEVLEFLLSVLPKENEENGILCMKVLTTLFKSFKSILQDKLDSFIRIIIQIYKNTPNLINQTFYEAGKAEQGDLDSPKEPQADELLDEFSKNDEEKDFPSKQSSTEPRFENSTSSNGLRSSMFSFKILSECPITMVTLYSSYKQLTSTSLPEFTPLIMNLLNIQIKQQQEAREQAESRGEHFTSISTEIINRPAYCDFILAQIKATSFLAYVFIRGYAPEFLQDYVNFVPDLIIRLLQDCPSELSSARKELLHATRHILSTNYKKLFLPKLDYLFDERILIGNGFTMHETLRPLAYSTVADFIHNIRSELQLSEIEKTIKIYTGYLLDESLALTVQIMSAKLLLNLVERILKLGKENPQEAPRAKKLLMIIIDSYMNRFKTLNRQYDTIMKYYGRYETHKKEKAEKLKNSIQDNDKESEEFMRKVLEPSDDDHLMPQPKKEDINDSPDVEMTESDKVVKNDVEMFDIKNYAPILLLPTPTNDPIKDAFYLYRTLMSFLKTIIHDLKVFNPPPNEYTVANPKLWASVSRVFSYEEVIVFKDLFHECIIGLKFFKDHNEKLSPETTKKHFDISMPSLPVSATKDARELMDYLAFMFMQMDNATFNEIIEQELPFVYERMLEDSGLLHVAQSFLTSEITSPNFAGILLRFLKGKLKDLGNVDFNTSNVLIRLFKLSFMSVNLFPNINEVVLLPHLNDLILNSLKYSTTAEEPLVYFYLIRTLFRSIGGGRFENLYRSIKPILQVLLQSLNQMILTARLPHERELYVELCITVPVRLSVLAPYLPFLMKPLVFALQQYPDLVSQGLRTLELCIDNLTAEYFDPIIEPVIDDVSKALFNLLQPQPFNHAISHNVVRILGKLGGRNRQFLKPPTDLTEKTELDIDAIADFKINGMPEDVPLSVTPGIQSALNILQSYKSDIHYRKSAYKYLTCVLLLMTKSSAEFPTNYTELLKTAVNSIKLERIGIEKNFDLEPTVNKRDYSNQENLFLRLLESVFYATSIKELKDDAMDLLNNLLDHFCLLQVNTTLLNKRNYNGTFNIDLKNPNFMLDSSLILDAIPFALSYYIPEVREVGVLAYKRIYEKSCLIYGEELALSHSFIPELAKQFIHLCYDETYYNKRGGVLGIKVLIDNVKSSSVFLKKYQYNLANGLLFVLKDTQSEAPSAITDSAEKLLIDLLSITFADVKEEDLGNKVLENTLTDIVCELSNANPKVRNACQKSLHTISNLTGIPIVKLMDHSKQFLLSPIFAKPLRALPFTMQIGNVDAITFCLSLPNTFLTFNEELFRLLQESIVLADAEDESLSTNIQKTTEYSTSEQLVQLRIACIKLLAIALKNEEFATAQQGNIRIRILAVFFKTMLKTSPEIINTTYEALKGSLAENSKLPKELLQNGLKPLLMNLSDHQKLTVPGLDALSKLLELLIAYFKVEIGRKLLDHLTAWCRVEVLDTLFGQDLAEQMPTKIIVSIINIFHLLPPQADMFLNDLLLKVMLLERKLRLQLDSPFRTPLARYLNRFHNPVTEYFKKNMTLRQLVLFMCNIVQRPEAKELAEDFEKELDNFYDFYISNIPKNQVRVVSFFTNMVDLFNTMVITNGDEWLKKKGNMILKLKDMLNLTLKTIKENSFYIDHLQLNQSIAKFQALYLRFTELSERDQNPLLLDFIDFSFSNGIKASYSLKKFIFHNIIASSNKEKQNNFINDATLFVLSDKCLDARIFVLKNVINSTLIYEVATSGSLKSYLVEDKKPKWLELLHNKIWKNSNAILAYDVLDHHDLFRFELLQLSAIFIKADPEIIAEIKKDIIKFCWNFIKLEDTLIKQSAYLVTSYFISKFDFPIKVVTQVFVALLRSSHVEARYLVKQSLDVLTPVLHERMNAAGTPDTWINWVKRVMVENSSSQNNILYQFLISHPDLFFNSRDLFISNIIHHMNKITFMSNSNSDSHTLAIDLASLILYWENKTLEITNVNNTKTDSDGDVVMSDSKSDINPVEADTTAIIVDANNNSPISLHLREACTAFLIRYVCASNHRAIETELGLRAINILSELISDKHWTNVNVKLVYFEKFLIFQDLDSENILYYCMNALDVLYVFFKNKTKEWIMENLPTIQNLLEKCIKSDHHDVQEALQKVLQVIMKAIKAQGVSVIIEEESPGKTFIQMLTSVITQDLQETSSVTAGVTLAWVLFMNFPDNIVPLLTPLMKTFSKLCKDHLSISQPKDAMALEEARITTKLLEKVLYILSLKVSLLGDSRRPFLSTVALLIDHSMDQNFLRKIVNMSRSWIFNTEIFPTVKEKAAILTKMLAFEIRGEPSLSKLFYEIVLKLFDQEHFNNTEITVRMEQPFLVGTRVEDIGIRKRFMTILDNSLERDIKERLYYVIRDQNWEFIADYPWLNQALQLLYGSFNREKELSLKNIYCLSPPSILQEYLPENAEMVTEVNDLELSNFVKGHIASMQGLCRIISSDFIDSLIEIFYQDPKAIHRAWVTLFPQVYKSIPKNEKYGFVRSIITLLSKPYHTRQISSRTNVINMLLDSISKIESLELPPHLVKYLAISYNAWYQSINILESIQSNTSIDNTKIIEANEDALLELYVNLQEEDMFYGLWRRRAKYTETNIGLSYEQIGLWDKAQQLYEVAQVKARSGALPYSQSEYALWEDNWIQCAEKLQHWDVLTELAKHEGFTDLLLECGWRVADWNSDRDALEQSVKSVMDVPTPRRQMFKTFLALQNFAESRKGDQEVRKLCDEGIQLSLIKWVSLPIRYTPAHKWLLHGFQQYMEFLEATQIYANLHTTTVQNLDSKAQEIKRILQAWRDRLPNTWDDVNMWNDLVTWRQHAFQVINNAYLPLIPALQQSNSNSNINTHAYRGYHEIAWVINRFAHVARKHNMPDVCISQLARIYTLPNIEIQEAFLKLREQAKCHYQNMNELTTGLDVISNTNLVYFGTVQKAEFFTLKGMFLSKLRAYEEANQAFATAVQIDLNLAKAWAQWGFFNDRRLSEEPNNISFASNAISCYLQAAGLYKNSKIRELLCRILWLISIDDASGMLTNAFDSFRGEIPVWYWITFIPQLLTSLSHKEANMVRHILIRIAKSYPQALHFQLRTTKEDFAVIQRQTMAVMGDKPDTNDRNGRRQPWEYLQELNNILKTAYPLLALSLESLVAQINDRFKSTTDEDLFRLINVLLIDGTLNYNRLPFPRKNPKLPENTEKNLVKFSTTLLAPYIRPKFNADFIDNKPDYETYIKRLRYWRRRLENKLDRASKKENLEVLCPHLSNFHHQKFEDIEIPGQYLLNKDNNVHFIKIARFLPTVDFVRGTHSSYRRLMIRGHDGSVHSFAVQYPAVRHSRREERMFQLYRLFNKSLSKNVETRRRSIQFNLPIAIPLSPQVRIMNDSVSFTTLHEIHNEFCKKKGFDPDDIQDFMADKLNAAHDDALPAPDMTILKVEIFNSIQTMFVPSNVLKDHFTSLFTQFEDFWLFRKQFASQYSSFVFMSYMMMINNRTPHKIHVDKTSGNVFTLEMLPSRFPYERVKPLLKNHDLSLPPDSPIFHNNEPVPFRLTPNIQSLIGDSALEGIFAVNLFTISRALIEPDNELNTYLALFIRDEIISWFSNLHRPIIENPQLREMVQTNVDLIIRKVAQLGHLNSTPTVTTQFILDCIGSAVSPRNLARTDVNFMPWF

T1: Sfp1-TAP fusion protein (S. cerevisiae) (UniProt P32432)
T1 sequence: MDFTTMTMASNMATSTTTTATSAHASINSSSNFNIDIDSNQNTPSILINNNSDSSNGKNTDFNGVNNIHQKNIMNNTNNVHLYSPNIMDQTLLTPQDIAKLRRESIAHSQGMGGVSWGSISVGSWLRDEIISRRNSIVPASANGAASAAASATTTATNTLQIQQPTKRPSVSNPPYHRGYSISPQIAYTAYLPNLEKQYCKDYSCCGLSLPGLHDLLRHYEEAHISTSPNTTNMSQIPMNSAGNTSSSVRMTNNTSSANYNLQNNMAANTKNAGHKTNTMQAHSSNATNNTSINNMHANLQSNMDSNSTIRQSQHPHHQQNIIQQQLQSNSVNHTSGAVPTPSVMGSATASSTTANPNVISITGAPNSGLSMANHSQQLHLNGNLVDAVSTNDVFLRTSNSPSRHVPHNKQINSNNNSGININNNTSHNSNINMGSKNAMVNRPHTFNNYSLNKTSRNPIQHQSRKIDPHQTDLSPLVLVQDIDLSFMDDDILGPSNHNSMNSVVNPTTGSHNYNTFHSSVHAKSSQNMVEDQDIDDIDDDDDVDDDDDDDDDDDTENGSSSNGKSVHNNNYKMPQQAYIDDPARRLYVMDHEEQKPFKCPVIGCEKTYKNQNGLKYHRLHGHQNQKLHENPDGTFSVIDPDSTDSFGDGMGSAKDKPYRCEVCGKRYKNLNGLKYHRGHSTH

B1: Eaf1 (protein, UniProt Q06337 1-982)
chain: MSSRPSSAVPNSASLSEDQSSDRSKFPKADDLIDERDRKLTELYCVSRLNQLLELTDENKLRKEIDAFLKKNDIRRGIRFDEASLPKLLHTAATPITKKKLKDVNLINVPNQRLSDSKMSRELPENSENVSVKSESHFVPSHDNSIRENMMDSLRPAEKTGGMWNKRPLESTMGGEEERHEKRQKMQSQSLESSNNSEMASLPISPRPPVPNALAHYTYYENIEYPPADPTEVQPAVKFKDPLIKNIMAKEIDTSDHYNENNVDALETVFLLMNDYIPSKIPQALPLAELKYMSQTLPLINLIPRAHKALTTNIINNALNEARITVVGSRIEELRRLGLWSLRQPKRFIDPWKQHNTHQNILLEEAKWMQADFKEGHKYKVAICTAMAQAIKDYWTYGEICCVKRKTLLPGKENKLSDDGRISEKSGRPSDTSRNDSDISIAGKDDIGIIANVDDITEKESAAANDNDENGKNEAGAKSDFDFADGLLSQEGAHDQIISSIDTKLLLKKPSSSSEVVLIQHEVAASSALIETEESKKELAPPFKLSIFVDELNTFEKTLIQDLPLYNGINEERPKKDDSLPFIPISKSVVSLDDNGFYKLLERQLIDEEPSISQLSKRRGMFYGNRRNHYLRPPAVPSLRYLQNRTPTIWLSEDDQELVKNINTYGYNWELISAHMTHRLTYSYLSNIERRTPWQCFERFVQLNERFNFSDLKGPRAHSAQQWLIEAHKFQQRQNRRISPLGVNTESIQRGHRRLRWASMFEAIRKCMKKRENTPRPNPTQPRKPLDCKNMKVPTPAEMSLLKAQRDEALRRDIQLRRTVKNRLQQRQQQSQQAHSSRAQSPIPSNGKSSSNLARNGQASAPRPNQKQYTEQDIIESYSRKLLEQKPDIGPEMALKAAKNYYRTLREQQQQLKQHQIQQQRQQLQEESSHVQQLQQLQPGSQAPPPKSSPSQSSLSNISNINSAPRIKSPTPQEILQRFQKQ
B2: Arp4 (protein, UniProt P80428 1-489)
chain: MSNAALQVYGGDEVSAVVIDPGSYTTNIGYSGSDFPQSILPSVYGKYTADEGNKKIFSEQSIGIPRKDYELKPIIENGLVIDWDTAQEQWQWALQNELYLNSNSGIPALLTEPVWNSTENRKKSLEVLLEGMQFEACYLAPTSTCVSFAAGRPNCLVVDIGHDTCSVSPIVDGMTLSKSTRRNFIAGKFINHLIKKALEPKEIIPLFAIKQRKPEFIKKTFDYEVDKSLYDYANNRGFFQECKETLCHICPTKTLEETKTELSSTAKRSIESPWNEEIVFDNETRYGFAEELFLPKEDDIPANWPRSNSGVVKTWRNDYVPLKRTKPSGVNKSDKKVTPTEEKEQEAVSKSTSPAANSADTPNETGKRPLEEEKPPKENNELIGLADLVYSSIMSSDVDLRATLAHNVVLTGGTSSIPGLSDRLMTELNKILPSLKFRILTTGHTIERQYQSWLGGSILTSLGTFHQLWVGKKEYEEVGVERLLNDRFR
B3: Esa1 (enzyme, UniProt Q08649 1-445)
chain: MSHDGKEEPGIAKKINSVDDIIIKCQCWVQKNDEERLAEILSINTRKAPPKFYVHYVNYNKRLDEWITTDRINLDKEVLYPKLKATDEDNKKQKKKKATNTSETPQDSLQDGVDGFSRENTDVMDLDNLNVQGIKDENISHEDEIKKLRTSGSMTQNPHEVARVRNLNRIIMGKYEIEPWYFSPYPIELTDEDFIYIDDFTLQYFGSKKQYERYRKKCTLRHPPGNEIYRDDYVSFFEIDGRKQRTWCRNLCLLSKLFLDHKTLYYDVDPFLFYCMTRRDELGHHLVGYFSKEKESADGYNVACILTLPQYQRMGYGKLLIEFSYELSKKENKVGSPEKPLSDLGLLSYRAYWSDTLITLLVEHQKEITIDEISSMTSMTTTDILHTAKTLNILRYYKGQHIIFLNEDILDRYNRLKAKKRRTIDPNRLIWKPPVFTASQLRFAW

These molecules were tested against T1, Sfp1-TAP fusion protein (S. cerevisiae) (assay: co-IP).
For Tra1 (from UniProt P38811 1-3744), the binding was “binds”. B1 was tested, and the binding was “binds”. With B2 the binding was “binds”. For B3, the binding was “binds”.
